Reference: PubChem BioAssay AID1487 (National Center for Advancing Translational Sciences (NCATS), 2009)
The other results are listed elsewhere or left out. The main result of the screen is listed elsewhere. These columns were measured beside it and carry no call. The list favours compounds with an active or inconclusive main result. Words in brackets tell the shape of the fitted curve; partial curves, single points and poor fits give uncertain potencies.

Experiment: qHTS Assay for Modulators of Lamin A Splicing
Settings: HeLa LMNA splicing GFP/RFP minigene ratio, 48 h
In short: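 S3 HeLa stable clones carrying a lamin A-EGFP splicing minigene plus DsRed2 were seeded at 600 cells/well in Opti-MEM with 2% FBS, pin-dosed and incubated 48 h at 37°C. Acumen cytometry (488 nm) gave the GFP/RFP total-intensity ratio.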

[1] = measured here: RFP viability control channel
[2] = measured here: GFP splicing reporter channel

| Compound | AC50 [1] | AC50 [2] |
| --- | --- | --- |
| O=C(c1ccc([N+](=O)[O-])s1)N1CCN(c2ccccc2)CC1 | 14.1 µM [rising, single point] | – |
| Cc1nn(-c2ccccc2)c(C)c1/C=N/NC(=O)CSc1nc2ccccc2c(=O)n1-c1ccc(Br)cc1 | 7.94 µM [falling, partial curve] | 7.94 µM [falling, partial curve] |
| COc1ccc(NC(=O)Cn2c(=O)n(-c3ccc(CC(=O)NCc4ccco4)cc3)c(=O)c3ccccc32)cc1 | 17.8 µM [falling, partial curve] | 22.4 µM [falling, partial curve, poor fit] |
| Cc1ccc(C(=O)CSc2nnc(COc3cccc(C)c3)o2)cc1 | 11.2 µM [rising, partial curve] | – |
| O=c1oc2ccccc2cc1-c1csc(Cc2nc(-c3ccc(Cl)cc3)cs2)n1 | 5.62 µM [rising, single point] | – |
| COC(=O)c1c(-c2ccc(Cl)cc2)noc1N1CCN(c2cccc(C)c2C)CC1 | – | 8.91 µM [falling, partial curve, poor fit] |
| CCOc1ccc(-c2n[nH]c(C)c2-c2ccccc2OC)c(O)c1 | 17.8 µM [rising, single point] | – |
| CCCNC(=S)N1CCC(n2cnc3ccccc32)CC1 | – | 6.31 µM [falling, single point] |
| Clc1ccc(N=c2ssnc2Cl)cc1 | 12.6 µM [rising, partial curve] | – |
| Nc1cccc(-c2cc(-c3ccccc3)nc(-c3cccc(N)c3)n2)c1 | 35.5 µM [falling, single point] | 35.5 µM [falling, single point] |
| CCOc1ccc(C2=C(C(=O)CC)Sc3nncn3N2C(=O)CC)cc1 | – | 0.794 µM [falling, partial curve, poor fit] |
| Cc1ccc(-c2nnn(CCC(=O)N3CCCCC3C)n2)cc1 (stereo not given) | 25.1 µM [rising, single point] | 28.2 µM [rising, partial curve] |
| O=c1[nH]c2cccc(Cl)c2n(CCNc2ncc(C(F)(F)F)cc2Cl)c1=O | 14.1 µM [rising, partial curve, poor fit] | – |
| Cc1nn(CCC(=O)O)c2nc(-c3cccnc3)cc(C(F)(F)F)c12 | 0.0708 µM [rising, full curve, poor fit] | – |
| CC(C)c1ccc(/C=C/C(=O)NCCC2=CCCCC2)cc1 | 28.2 µM [rising, single point] | – |
| COC(=O)c1cccc(Nc2nc3ccccc3nc2C)c1 | 11.2 µM [rising, partial curve] | 5.01 µM [rising, partial curve] |
| CC(=O)Nc1ccc(NC(=O)CSc2nnc(-c3ccc(NS(C)(=O)=O)cc3)n2C)cc1C | 0.00447 µM [rising, full curve, poor fit] | – |
| Cc1cc(C(C)(C)C)ccc1OCCn1ccnc1 | 7.94 µM [rising, partial curve, poor fit] | – |
| O=C(NCc1ccc2c(c1)OCO2)c1ccc(NS(=O)(=O)c2ccc3c(c2)OCCO3)cc1 | 15.8 µM [rising, partial curve] | – |

Entries of single compounds, looked up by structure:
CC(C)c1ccc(/C=C/C(=O)NCCC2=CCCCC2)cc1 is entered as AC50 [1]: 28.2 µM [rising, single point]
CCOc1ccc(C2=C(C(=O)CC)Sc3nncn3N2C(=O)CC)cc1 is entered as AC50 [2]: 0.794 µM [falling, partial curve, poor fit]

Further structures.

| Compound | AC50 [1] | AC50 [2] |
| --- | --- | --- |
| CN(C)CCOC(=O)[C@@H](c1ccccc1)C1(O)CCCC1 | 0.282 µM [falling, partial curve] | – |
| COc1c(Cl)cc(C(=O)Nc2ccccc2C(=O)O)cc1Cl | 0.0282 µM [falling, single point] | – |
| CCOC(=O)C(=O)CC(=O)c1ccc2c(c1)OCCO2 | – | 0.0447 µM [rising, full curve, poor fit] |
| Cc1ccc(C)c(S(=O)(=O)n2nc(C)c(S(=O)(=O)N3CCC(C)CC3)c2C)c1 | 17.8 µM [rising, partial curve] | 17.8 µM [rising, partial curve, poor fit] |
| Cc1cccc(-n2c(SCC(=O)Nc3cccc(S(=O)(=O)NC4=NCCCCC4)c3)nc3ccccc3c2=O)c1C | 0.562 µM [rising, partial curve, poor fit] | – |
| C=CCn1c(Cc2cccs2)nnc1SCC(=O)c1ccc(F)cc1 | – | 25.1 µM [rising, single point] |
| CCc1cccc(CC)c1C(O)c1cccnc1 (stereo not given) | 0.00447 µM [falling, full curve, poor fit] | – |
| COc1ccccc1C(=O)N1CC2(C)CC1CC(C)(C)C2 (stereo not given) | 35.5 µM [rising, single point] | – |
| COc1ccc(NS(=O)(=O)c2cccc(C(=O)N/N=C(\C)c3ccncc3)c2)cc1 | 35.5 µM [rising, single point] | – |
| O=C(Nc1ccc2c(c1)CCC2)c1cccs1 | 0.0398 µM [falling, full curve] | 0.0224 µM [falling, full curve, poor fit] |
| CC(C)=NNc1nc2c(c(=O)[nH]c(=O)n2C)n1CCc1ccccc1 | – | 35.5 µM [falling, single point] |
| C/C(=N/Nc1cc(-c2ccccc2)nc(-c2ccccc2)n1)c1ccc(O)cc1 | 25.1 µM [rising, single point] | 35.5 µM [falling, single point] |
| Cc1c(C(=O)OCC2CCCO2)[nH]c2c1C(=O)CC(c1ccc(N(C)C)cc1)C2 (stereo not given) | 11.2 µM [rising, partial curve] | – |
| Cc1cc(C)c(-c2csc(Cc3nc(-c4cc5ccccc5oc4=O)cs3)n2)cc1C | 14.1 µM [rising, partial curve] | – |
| COc1cccc(C2=NN(C(=O)c3ccccc3)C(O)(C(F)(F)F)C2)c1 (stereo not given) | 31.6 µM [rising, single point] | – |
| Fc1ccc(-c2csc3ncnc(N4CCc5ccccc5C4)c23)cc1 | 35.5 µM [rising, single point] | – |
| Cc1cc(C(=O)c2ccccc2)c(NC(=O)CCl)s1 | – | 22.4 µM [falling, single point] |
| COc1cccc(NC(=O)C2CCCN2S(=O)(=O)c2ccc3nc(-c4ccccc4)[nH]c3c2)c1 (stereo not given) | 0.00316 µM [falling, full curve, poor fit] | – |
